Test results: PMC7288058, “Modulating the Properties of Fe(III) Macrocyclic MRI Contrast Agents by Appending Sulfonate or Hydroxyl Groups” (Molecules, 2020)

Legend:
[1] = Variable-temperature 17O-NMR resonance broadening; type: physicochemical; settings: for 17O resonance peak width relative to maximum peak width of Fe(CDTA): neutral pH; for 17O resonance peak width relative to Fe(CDTA): pH 3
[2] = Benzoate hydroxylation fluorescence assay (hydroxyl radical production with ascorbate and H2O2); settings: for hydroxyl radical production / hydroxylation of aromatics: ascorbate and peroxide present; for % Benzoate Oxidation: normalized to amount produced by Fe(EDTA), 50.0 μM complex, ascorbate, H2O2, pH 7.4, 37 °C, 1 h

C[C@H]([O-])CN1CCN(CCCS(=O)(=O)[O-])CCN(C[C@H](C)O)CC1.O.[Fe+3] [Fe(L1)(OH2)]
17O resonance peak width relative to maximum peak width of Fe(CDTA) [1]: ~1% | 17O resonance peak width relative to Fe(CDTA) [1]: ~7% | hydroxyl radical production / hydroxylation of aromatics [2]: does not produce hydroxylation of aromatics | % Benzoate Oxidation [2]: 3.57 ± 0.18%

C[C@H]([O-])CN1CCN(C[C@H](C)O)CCN(C[C@H](C)O)CC1.[Fe+3] [Fe(L2)]
hydroxyl radical production / hydroxylation of aromatics [2]: does not produce hydroxylation of aromatics | % Benzoate Oxidation [2]: 3.76 ± 0.85%

C[C@H]([O-])CN1CCN(Cc2ccccc2)CCN(C[C@H](C)O)CC1.O.[Fe+3] [Fe(L3)(OH2)]
17O resonance peak width relative to maximum peak width of Fe(CDTA) [1]: about 15% | 17O resonance peak width relative to Fe(CDTA) [1]: about 21%
